From PMC10897455
These are yes or no findings as the source states them, for the method shown. Binding seen in cells or lysates may run through a third protein. Some entries that bind do so weakly or less than the wild type. Tags and fused reporters may be left off the sequences shown.

Legend:
[1] = target: T1, TM-JAM chimera (TMEM25 with its transmembrane segment replaced by that of JAM-A), FLAG-tagged (human) (UniProt Q86YD3+Q9Y624); assay: co-IP; cis: HEK293T cells co-transfected with two tagged proteins, cultured at low density; lysis in 150 mM NaCl, 4 mM EDTA, 10% glycerol, 0.5% Triton X-100, 50 mM Tris-HCl pH 7.5, 1 mM DTT; anti-FLAG (M2) or anti-HA (3F10) on protein G-Sepharose; immunoblot
T1 sequence: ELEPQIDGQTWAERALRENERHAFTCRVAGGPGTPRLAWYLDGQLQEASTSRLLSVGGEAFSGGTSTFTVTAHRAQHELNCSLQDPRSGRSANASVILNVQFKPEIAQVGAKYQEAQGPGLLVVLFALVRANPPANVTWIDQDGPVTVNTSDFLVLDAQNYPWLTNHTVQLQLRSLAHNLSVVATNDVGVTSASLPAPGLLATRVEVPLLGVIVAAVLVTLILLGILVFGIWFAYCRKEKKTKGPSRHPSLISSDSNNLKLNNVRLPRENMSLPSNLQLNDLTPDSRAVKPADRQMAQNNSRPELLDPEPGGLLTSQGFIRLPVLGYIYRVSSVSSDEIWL

[2] = target: T2, TMEM25-ΔECR (residues 225–366), FLAG-tagged, in HEK293 cells (human) (UniProt Q86YD3); assay: as above
T2 sequence: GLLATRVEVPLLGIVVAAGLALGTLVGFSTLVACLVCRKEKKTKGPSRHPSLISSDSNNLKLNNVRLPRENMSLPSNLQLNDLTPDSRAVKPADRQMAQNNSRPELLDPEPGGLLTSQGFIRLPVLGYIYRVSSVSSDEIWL

[3] = target: T3, TMEM25-ΔICR (residues 27–268), FLAG-tagged, in HEK293 cells (human) (UniProt Q86YD3); assay: as above
T3 sequence: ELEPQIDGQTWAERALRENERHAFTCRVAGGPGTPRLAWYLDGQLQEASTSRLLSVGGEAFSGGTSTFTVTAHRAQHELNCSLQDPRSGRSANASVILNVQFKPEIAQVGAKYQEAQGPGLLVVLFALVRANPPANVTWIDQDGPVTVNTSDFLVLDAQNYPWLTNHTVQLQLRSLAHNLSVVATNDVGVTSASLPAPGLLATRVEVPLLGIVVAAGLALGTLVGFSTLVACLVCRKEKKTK

[4] = target: T4, TMEM25-NQ (N106Q/N119Q/N162Q/N175Q/N192Q/N205Q), FLAG- or HA-tagged, in HEK293 cells (human) (UniProt Q86YD3); assay: as above
T4 sequence: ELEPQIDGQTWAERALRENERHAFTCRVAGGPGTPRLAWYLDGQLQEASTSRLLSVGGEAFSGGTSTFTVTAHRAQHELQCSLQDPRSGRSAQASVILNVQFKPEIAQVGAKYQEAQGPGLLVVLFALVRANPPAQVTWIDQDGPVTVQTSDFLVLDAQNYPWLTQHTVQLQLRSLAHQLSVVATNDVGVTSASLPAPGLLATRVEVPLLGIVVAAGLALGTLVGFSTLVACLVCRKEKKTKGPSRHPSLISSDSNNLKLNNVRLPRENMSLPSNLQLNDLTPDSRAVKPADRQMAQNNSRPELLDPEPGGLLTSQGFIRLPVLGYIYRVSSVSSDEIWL

[5] = target: JAM-A (residues 28–299), N-terminally FLAG- or HA-tagged, in HEK293 cells (human) (UniProt Q9Y624); assay: co-IP; trans: HEK293T cells expressing one tagged protein co-cultured to confluency with HEK293T cells expressing the other; lysate precipitated with anti-FLAG antibody; immunoblot
[6] = target: JAM-A (residues 28–299), N-terminally FLAG- or HA-tagged, in HEK293 cells (human) (UniProt Q9Y624); assay: co-IP; cis: HEK293T cells co-transfected with two tagged proteins, cultured at low density; lysis in 150 mM NaCl, 4 mM EDTA, 10% glycerol, 0.5% Triton X-100, 50 mM Tris-HCl pH 7.5, 1 mM DTT; anti-FLAG (M2) or anti-HA (3F10) on protein G-Sepharose; immunoblot
[7] = target: T5, TMEM25-FL (residues 27–366), N-terminally FLAG- or HA-tagged, in HEK293 cells (human) (UniProt Q86YD3); assay: as above
T5 sequence (chain, N-glycosylated (complex-type and high-mannose-type N-glycans)): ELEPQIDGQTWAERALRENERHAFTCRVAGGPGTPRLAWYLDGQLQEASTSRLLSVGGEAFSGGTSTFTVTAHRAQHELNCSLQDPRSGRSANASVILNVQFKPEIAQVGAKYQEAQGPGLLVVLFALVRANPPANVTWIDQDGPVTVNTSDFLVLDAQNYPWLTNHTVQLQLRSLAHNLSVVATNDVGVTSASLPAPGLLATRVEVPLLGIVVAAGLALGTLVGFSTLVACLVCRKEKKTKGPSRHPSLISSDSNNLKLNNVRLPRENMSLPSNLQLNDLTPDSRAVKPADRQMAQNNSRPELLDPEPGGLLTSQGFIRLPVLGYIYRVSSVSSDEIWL

[8] = target: T6, claudin-1 (residues 1–211), FLAG- or Myc-tagged, in HEK293 cells (human), O95832; assay: co-IP; cis, with or without a co-expressed third protein: HEK293T cells triply transfected (HA–TMEM25, HA–JAM-A or Myc–Par3 as third protein), low density; anti-FLAG or anti-HA precipitation; immunoblot, band ratios; conditions: remark: other sources report otherwise
T6 chain: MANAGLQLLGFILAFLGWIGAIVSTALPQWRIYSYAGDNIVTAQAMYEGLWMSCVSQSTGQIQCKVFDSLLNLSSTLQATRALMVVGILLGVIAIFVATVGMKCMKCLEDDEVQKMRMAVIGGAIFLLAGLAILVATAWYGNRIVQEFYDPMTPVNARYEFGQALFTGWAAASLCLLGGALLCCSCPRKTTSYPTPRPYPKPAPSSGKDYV

[9] = target: T6, claudin-1 (residues 1–211), FLAG- or …; assay: co-IP; trans, with or without a co-expressed third protein: HEK293T cells with the FLAG-tagged protein with or without HA–TMEM25 or HA–JAM-A co-cultured to confluency with cells expressing the Myc-tagged protein; anti-FLAG precipitation; immunoblot, band ratios; conditions: remark: other sources report otherwise
[10] = target: T7, claudin-2 (residues 1–230), FLAG- or Myc-tagged, in HEK293 cells (human), P57739; assay: co-IP; cis, with or without a co-expressed third protein: HEK293T cells triply transfected (HA–TMEM25, HA–JAM-A or Myc–Par3 as third protein), low density; anti-FLAG or anti-HA precipitation; immunoblot, band ratios; conditions: remark: other sources report otherwise
T7 chain: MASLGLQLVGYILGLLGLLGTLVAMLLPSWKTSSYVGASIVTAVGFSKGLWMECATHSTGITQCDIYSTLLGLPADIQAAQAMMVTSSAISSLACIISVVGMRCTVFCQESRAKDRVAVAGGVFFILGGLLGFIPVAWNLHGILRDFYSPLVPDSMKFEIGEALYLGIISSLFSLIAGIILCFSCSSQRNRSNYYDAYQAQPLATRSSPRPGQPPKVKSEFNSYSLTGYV

B1: TMEM25-FL (residues 27–366), N-terminally FLAG- or HA-tagged, in HEK293 cells (protein, UniProt Q86YD3 27-366)
chain: ELEPQIDGQTWAERALRENERHAFTCRVAGGPGTPRLAWYLDGQLQEASTSRLLSVGGEAFSGGTSTFTVTAHRAQHELNCSLQDPRSGRSANASVILNVQFKPEIAQVGAKYQEAQGPGLLVVLFALVRANPPANVTWIDQDGPVTVNTSDFLVLDAQNYPWLTNHTVQLQLRSLAHNLSVVATNDVGVTSASLPAPGLLATRVEVPLLGIVVAAGLALGTLVGFSTLVACLVCRKEKKTKGPSRHPSLISSDSNNLKLNNVRLPRENMSLPSNLQLNDLTPDSRAVKPADRQMAQNNSRPELLDPEPGGLLTSQGFIRLPVLGYIYRVSSVSSDEIWL
modifications: N-glycosylated (complex-type and high-mannose-type N-glycans)
- binding [1]: binds
- binding [2]: binds
- binding [3]: binds

B2: TMEM25-NQ (N106Q/N119Q/N162Q/N175Q/N192Q/N205Q), FLAG- or HA-tagged, in HEK293 cells (protein, UniProt Q86YD3 27-366)
chain: ELEPQIDGQTWAERALRENERHAFTCRVAGGPGTPRLAWYLDGQLQEASTSRLLSVGGEAFSGGTSTFTVTAHRAQHELQCSLQDPRSGRSAQASVILNVQFKPEIAQVGAKYQEAQGPGLLVVLFALVRANPPAQVTWIDQDGPVTVQTSDFLVLDAQNYPWLTQHTVQLQLRSLAHQLSVVATNDVGVTSASLPAPGLLATRVEVPLLGIVVAAGLALGTLVGFSTLVACLVCRKEKKTKGPSRHPSLISSDSNNLKLNNVRLPRENMSLPSNLQLNDLTPDSRAVKPADRQMAQNNSRPELLDPEPGGLLTSQGFIRLPVLGYIYRVSSVSSDEIWL
- binding [4]: binds

B3: JAM-A (residues 28–299), N-terminally FLAG- or HA-tagged, in HEK293 cells (protein, UniProt Q9Y624 28-299)
chain: SVTVHSSEPEVRIPENNPVKLSCAYSGFSSPRVEWKFDQGDTTRLVCYNNKITASYEDRVTFLPTGITFKSVTREDTGTYTCMVSEEGGNSYGEVKVKLIVLVPPSKPTVNIPSSATIGNRAVLTCSEQDGSPPSEYTWFKDGIVMPTNPKSTRAFSNSSYVLNPTTGELVFDPLSASDTGEYSCEARNGYGTPMTSNAVRMEAVERNVGVIVAAVLVTLILLGILVFGIWFAYSRGHFDRTKKGTSSKKVIYSQPSARSEGEFKQTSSFLV
- binding [5]: binds
- binding [6]: binds
- binding [7]: no binding

B4: claudin-1 (residues 1–211), FLAG- or Myc-tagged, in HEK293 cells, O95832 1-211 (protein)
chain: MANAGLQLLGFILAFLGWIGAIVSTALPQWRIYSYAGDNIVTAQAMYEGLWMSCVSQSTGQIQCKVFDSLLNLSSTLQATRALMVVGILLGVIAIFVATVGMKCMKCLEDDEVQKMRMAVIGGAIFLLAGLAILVATAWYGNRIVQEFYDPMTPVNARYEFGQALFTGWAAASLCLLGGALLCCSCPRKTTSYPTPRPYPKPAPSSGKDYV
- binding [8]: binds
- binding [9]: binds

B5: claudin-2 (residues 1–230), FLAG- or Myc-tagged, in HEK293 cells, P57739 1-230 (protein)
chain: MASLGLQLVGYILGLLGLLGTLVAMLLPSWKTSSYVGASIVTAVGFSKGLWMECATHSTGITQCDIYSTLLGLPADIQAAQAMMVTSSAISSLACIISVVGMRCTVFCQESRAKDRVAVAGGVFFILGGLLGFIPVAWNLHGILRDFYSPLVPDSMKFEIGEALYLGIISSLFSLIAGIILCFSCSSQRNRSNYYDAYQAQPLATRSSPRPGQPPKVKSEFNSYSLTGYV
- binding [10]: binds
